# Data: PubChem BioAssay AID504467 (National Center for Advancing Translational Sciences (NCATS), 2011)
# About 7,700 (2.3%) of roughly 330,000 compounds were called active. The inconclusive results got no clear call from the source; some entries with a clear call stand among them for comparison. Calls follow the shape of the dose curve; as a rule, active = well fitted inhibition curve with a large enough effect; inconclusive = small, poorly fitted or top-dose-only effect, or effect the other way; inactive = flat fitted curve, though single readings scatter. Potencies of inconclusive entries are doubtful fits and often do not repeat.
# Assay: qHTS screen for small molecules that inhibit ELG1-dependent DNA repair in human embryonic kidney (HEK293T) cells expressing luciferase-tagged ELG1; also: nearly all actives have a fitted effect of over 55% in size
# Settings: HEK293T ELG1-luciferase reporter, luminescence, 16 h, DNA damage induced by 5-fluorouridine; activity change, negative = inhibition: at 46.1 µM (top of the series)
# Summary of the method: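 Overnight (16 hr) co-exposure of 2,000 cells/well to 5-fluorouridine and compound at 37 °C preceded detection. Luciferase was quantified via ONE-Glo luminescence; loss of signal denotes inhibition.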
# % is scaled to controls: 0 for no effect and ±100 for the full control effect; potency is read from the fitted curve at half-maximal effect.
Structure (SMILES),"activity change, negative = inhibition",Potency
CCCCn1c(N)c(N(CC(C)C)C(=O)c2ccc([N+](=O)[O-])o2)c(=O)[nH]c1=O,inactive: -1.79%,–
COc1ccc(N2CCN(CCCNC(=O)c3ccc(CS(=O)(=O)c4ccc(Cl)cc4)o3)CC2)cc1,inactive: -16.3%,–
CCC(C)(C)NC(=O)C(c1ccc(OC)cc1)N(C(=O)CCC(=O)Nc1cc(C)on1)c1ccc(F)cc1 (stereo not drawn),inactive: -17.5%,–
O=C(NCCc1ccccc1)C(=O)NCCC1CCCCN1S(=O)(=O)c1ccccc1 (stereo not drawn),inactive: -20.4%,–
COc1cccc(C(=O)C2CN(c3ccccc3)CC2c2ccc(Cl)cc2)c1 (stereo not drawn),inactive: 12.2%,–
Cc1ccc(-c2noc(C3CCCN(C(=O)c4ccc(F)cc4F)C3)n2)cc1 (stereo not drawn),inactive: -13.6%,–
Cc1ccc(C(=O)N[C@H](C(=O)OCC(=O)Nc2cccc(S(N)(=O)=O)c2)C(C)C)cc1,–,"inconclusive: 29.1 µM [activator, single point]"
COc1ccc(NC(=O)COc2ccccc2C#N)c(S(=O)(=O)N2CCCCC2)c1,–,active: 20.6 µM
Cc1ccc(C(=O)NCc2ccccn2)cc1Cl,–,"inconclusive: 23.1 µM [activator, single point]"
C/C(=N\NC(=S)Nc1ccc(C)cc1)c1cccc(N)c1,inactive: -19.6%,–
Cc1ccc(-c2nnn(C/C(N)=N/O)n2)cc1,–,"inconclusive: 2.59 µM [inhibitor, partial curve]"
CCOC(=O)c1c(NC(=O)CN2C(=O)NC(C)(c3ccc(Cl)cc3)C2=O)sc(C(=O)NC)c1C (stereo not drawn),–,active: 18.4 µM
CC(=O)Nc1cccc(N=NN2CCOCC2)c1,inactive: 21.1%,–
O=C(NCc1nnc(SCC(=O)N2CCc3ccccc32)o1)c1ccco1,inactive: -13.5%,–
CCCS(=O)(=O)N1CCCC(c2nc(-c3ccc(OC)cc3)no2)C1 (stereo not drawn),–,"inconclusive: 29.1 µM [inhibitor, single point]"
Cc1sc2nc(CSCC(=O)N(C)c3ccccc3)[nH]c(=O)c2c1C,–,"inconclusive: 25.9 µM [inhibitor, single point]"
CN(CC(=O)Nc1ccccc1C(F)(F)F)C(=O)c1ccc(-c2ccc(Cl)cc2)o1,inactive: -2.23%,–
COCC1CCN(c2nc3nonc3nc2N2CCSCC2)C1 (stereo not drawn),inactive: 7.63%,–
COc1ccc(C2CC(c3ccccc3)=NN2C(=O)COC(=O)c2cc(S(=O)(=O)N3CCOCC3)ccc2F)cc1 (stereo not drawn),–,"inconclusive: 16.4 µM [inhibitor, partial curve, poor fit]"
COc1ccc(S(=O)(=O)N(C)c2ccc(C(=O)NC3CCCC3)cc2)cc1,–,"inconclusive: 25.9 µM [inhibitor, single point]"
O=C(O)CSc1nc2sc3c(c2c(=O)n1Cc1ccccc1)CCCCC3,–,"inconclusive: 16.4 µM [activator, single point]"
COc1ccc(C2CCCN2C(=S)Nc2ccc(C)c(C)c2)cc1OC (stereo not drawn),–,active: 25.9 µM
O=S(=O)(c1ccc(-c2ccon2)s1)N1CCN(CCN2CCOCC2)CC1,–,"inconclusive: 0.259 µM [inhibitor, single point]"
N#CCCn1nc(-c2ccccc2)cc1Nc1ccccc1NC(=O)c1cccs1,–,"inconclusive: 29.1 µM [inhibitor, single point]"
COc1ccccc1N1CCN(C(CNS(=O)(=O)c2cc(F)ccc2F)c2cccnc2)CC1 (stereo not drawn),inactive: -1.85%,–

Structure (SMILES),"activity change, negative = inhibition",Potency
CCN(Cc1ccccc1)C(=O)c1cccc(S(=O)(=O)N2CCN(c3ccccc3)CC2)c1,–,"inconclusive: 8.2 µM [inhibitor, single point]"
Cc1cc(OCCN2CCN(S(=O)(=O)c3ccccc3F)CC2)ccc1C(C)C,inactive: 5.98%,–
Cn1c(=O)[nH]c2nnc(-c3ccc(Cl)c(Cl)c3)nc2c1=O,–,"inconclusive: 5.17 µM [activator, partial curve]"
O=C(NCC(=O)N1CCN(c2ccccc2)CC1)c1ccccc1,–,"inconclusive: 20.6 µM [activator, partial curve, poor fit]"
C=CCn1c(-c2ccco2)n[nH]c1=S,inactive: -3.28%,–
CSc1nc(N)nc(-c2cccs2)c1C#N,–,"inconclusive: 25.9 µM [activator, partial curve, poor fit]"
C=CCOc1ccc(C(=O)CC)cc1OC,–,"inconclusive: 23.1 µM [activator, partial curve, poor fit]"
O=C(CSc1nnc(-c2cccs2)n1-c1cccc(Cl)c1)c1cccc2c1OCCO2,–,"inconclusive: 16.4 µM [inhibitor, single point]"
COc1cc(OC)c(NS(=O)(=O)c2cc3[nH]c(=O)c(=O)[nH]c3cc2C)cc1Cl,inactive: 0%,–
O=c1oc2ccccc2c(Nc2cc3ccccc3cc2O)c1[N+](=O)[O-],–,"inconclusive: 2.06 µM [activator, full curve]"
CCn1c2ccc(C)cc2c2nnc(SCCN3CCCCC3)nc21,inactive: 25.7%,–
CCCc1ccc(-c2cc(C(=O)NCCc3ccc(S(N)(=O)=O)cc3)c3ccccc3n2)cc1,–,"inconclusive: 6.51 µM [activator, single point]"
Cc1ccc(S(=O)(=O)CCC(=O)NCCC2=CCCCC2)cc1,–,"inconclusive: 29.1 µM [activator, single point]"
C=CCNC(=O)COc1ccc(Br)cc1Cl,–,"inconclusive: 20.6 µM [activator, partial curve]"
C=CCN(C)NC(=S)Nc1ccccc1,inactive: 0.207%,–
COc1ccc(N2CCN(C(=O)CNC(=O)Cn3cnc4sc(C)c(C)c4c3=O)CC2)cc1,inactive: -1.38%,–
O=C1Nc2ccccc2C1(O)c1ccccc1 (stereo not drawn),inconclusive: 234% [activator],–
O=C(COC(=O)C1COc2ccccc2O1)Nc1ccccc1OC(F)F (stereo not drawn),inactive: 22.5%,–
COc1ccc(NC(=O)c2cc(-c3ccc(OC)c(OC)c3)nc3ccccc23)c(OC)c1,–,"inconclusive: 25.9 µM [inhibitor, single point]"
O=C(NCc1ccco1)C(C(=O)c1ccccc1)n1ccccc1=O (stereo not drawn),inactive: 9.34%,–
Cc1cccc(C(C)C)c1NC(=O)c1ccc(COc2ccc3c(C)cc(=O)oc3c2)cc1,–,"inconclusive: 1.16 µM [inhibitor, full curve]"
Cc1nc2ccc(NC(=O)COc3ccccc3[N+](=O)[O-])cc2s1,inactive: 4.33%,–
O=C(NCC1CCCO1)/C(=C/c1ccc(Cl)cc1)NC(=O)c1ccccc1 (stereo not drawn),–,"inconclusive: 18.4 µM [activator, partial curve, poor fit]"
CC(=O)Nc1ccc2nc(-c3ccco3)[nH]c2c1,–,"inconclusive: 23.1 µM [activator, single point]"
N#CC1=C(N)Oc2n[nH]c(-c3cccs3)c2C1c1ccsc1 (stereo not drawn),inactive: 16%,–

Structure (SMILES),"activity change, negative = inhibition",Potency
COc1cc(C(=O)NCCN2CCN(C(=O)c3cc(OC)c(OC)c(OC)c3)CC2)cc(OC)c1OC,inactive: 10%,–
CC(NC(=O)C(=O)N1CCCCC1)C(c1cccs1)N1CCN(C)CC1 (stereo not drawn),–,"inconclusive: 18.3 µM [activator, partial curve]"
Cc1cc2ccccc2n1CCNC(=O)Cc1cccc2ccccc12,–,"inconclusive: 14.6 µM [inhibitor, partial curve, poor fit]"
CCOc1ccc(NC(=O)CC(NC(C)=O)c2ccccc2)cc1S(=O)(=O)N1CCCC1 (stereo not drawn),inconclusive: 99.3% [activator],–
O=c1cc[nH]c2c(C(F)(F)F)cccc12,–,"inconclusive: 23.1 µM [activator, partial curve]"
O=C(Nc1cccnc1Cl)c1cc2ccccc2o1,–,"inconclusive: 9.2 µM [activator, partial curve]"
O=C(Nc1ccc(F)cc1)c1ccc(=O)[nH]n1,–,"inconclusive: 29.1 µM [activator, single point]"
COc1ccccc1N1CCN(CC(=O)Nc2ccc(S(=O)(=O)N3CCCCCC3)cc2)CC1,–,"inconclusive: 14.6 µM [inhibitor, partial curve]"
CCCCc1ccc(NC(=S)NCc2cccnc2)cc1,inactive: 6.35%,–
CCOC(=O)c1c(C)[nH]c(C)c1C(=O)COC(=O)c1ccc(Cl)c(S(N)(=O)=O)c1,–,"inconclusive: 29.1 µM [inhibitor, single point]"
CCn1cc(C(=O)NCC(OC)OC)c(=O)c2cc(S(=O)(=O)N(C)C3CCCCC3)ccc21,–,active: 9.2 µM
CC(=O)Nc1ccc(S(=O)(=O)N(C)c2ccc(OCCOc3cccc(C)c3)cc2)cc1,–,"inconclusive: 16.4 µM [inhibitor, partial curve]"
CCc1c(C)c2ccc(OC3CCCCC3=O)cc2oc1=O (stereo not drawn),–,"inconclusive: 20.6 µM [activator, partial curve]"
CCC(C(=O)N/N=C(\C)c1cccnc1)c1ccccc1 (stereo not drawn),–,"inconclusive: 23.1 µM [activator, single point]"
O=C(Nc1cccc(Cl)c1N1CCOCC1)c1ccc(Br)o1,–,"inconclusive: 23.1 µM [inhibitor, partial curve, poor fit]"
O=C(O)COc1ccccc1/C=N/NC(=O)CSc1nc2ccccc2c(=O)n1-c1ccccc1,inactive: 18.6%,–
Cc1ccc(NC(=O)CN2CCN(S(=O)(=O)c3ccc(F)cc3)CC2)cc1C,inactive: -6.46%,–
COc1cccc(NC(=S)N2CCC(c3ccc(C)cc3)C2)c1 (stereo not drawn),–,"inconclusive: 18.3 µM [activator, single point]"
CCN1C(=O)[C@@H]2[C@@H](c3ccc(SC4CCCCC4)cc3)N3CCCC[C@@]3(C(=O)OC)[C@@H]2C1=O,inactive: 17.5%,–
C/C(=N\NC(=O)c1cccnc1)c1cccc([N+](=O)[O-])c1,–,"inconclusive: 9.2 µM [activator, partial curve, poor fit]"
Cn1c(-c2ccccc2)c[n+]2c1-c1ccccc1C2,inactive: 8.89%,–
Cc1nc2ccc(S(=O)(=O)NCC(=O)N3CCC(C)CC3)cc2s1,inactive: -19.4%,–
COC(=O)c1cn(-c2ccccc2)nc1-c1ccc(OC)c(OC)c1,–,"inconclusive: 16.4 µM [inhibitor, partial curve, poor fit]"

# Single entries from the list.
# COc1ccccc1N1CCN(CC(=O)Nc2ccc(S(=O)(=O)N3CCCCCC3)cc2)CC1 – Potency: inconclusive: 14.6 µM [inhibitor, partial curve]
# CCn1cc(C(=O)NCC(OC)OC)c(=O)c2cc(S(=O)(=O)N(C)C3CCCCC3)ccc21 – Potency: active: 9.2 µM
# Cc1cc2ccccc2n1CCNC(=O)Cc1cccc2ccccc12 – Potency: inconclusive: 14.6 µM [inhibitor, partial curve, poor fit]
# Cn1c(-c2ccccc2)c[n+]2c1-c1ccccc1C2 – activity change, negative = inhibition: inactive: 8.89%
